Results are given in words; binding and its absence hold for the method and conditions named. Binding seen in cells or lysates may run through a third protein. These calls come from enrichment with a bait or labelling near it, and not all partners need be listed. For some assays here: Where a sequence is shown, tags or fusion partners need not be part of it.

The chains behind the UniProt entries cited, without tags or fusion partners.
UniProt P53224: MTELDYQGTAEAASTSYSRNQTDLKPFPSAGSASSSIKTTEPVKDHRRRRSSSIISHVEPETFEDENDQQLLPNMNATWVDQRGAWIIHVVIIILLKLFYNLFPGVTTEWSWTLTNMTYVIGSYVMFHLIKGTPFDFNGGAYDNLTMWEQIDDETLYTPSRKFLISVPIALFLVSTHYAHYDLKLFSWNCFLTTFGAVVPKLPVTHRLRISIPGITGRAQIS

Common to all, as to assay: affinity purification with mass spectrometry
The target of assay [1] is T1, ALFA-lcb1ΔTM1 (Lcb1 lacking TM1, Y55-S73) (S. cerevisiae) (UniProt P25045).
T1 sequence: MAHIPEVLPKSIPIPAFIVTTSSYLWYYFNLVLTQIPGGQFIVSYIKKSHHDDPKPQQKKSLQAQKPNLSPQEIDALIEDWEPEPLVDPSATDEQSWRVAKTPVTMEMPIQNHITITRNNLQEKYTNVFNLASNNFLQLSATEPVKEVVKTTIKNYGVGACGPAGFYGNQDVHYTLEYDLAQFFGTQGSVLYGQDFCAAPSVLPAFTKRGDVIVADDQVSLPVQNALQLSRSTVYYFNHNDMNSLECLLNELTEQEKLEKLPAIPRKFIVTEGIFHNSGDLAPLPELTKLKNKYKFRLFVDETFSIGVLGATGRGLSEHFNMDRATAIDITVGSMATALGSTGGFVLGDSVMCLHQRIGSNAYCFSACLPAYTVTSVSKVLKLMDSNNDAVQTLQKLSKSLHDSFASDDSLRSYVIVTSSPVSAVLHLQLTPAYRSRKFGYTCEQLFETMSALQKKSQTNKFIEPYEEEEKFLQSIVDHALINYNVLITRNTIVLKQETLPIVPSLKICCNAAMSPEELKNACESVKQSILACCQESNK

For assay [2], the target named is T2, ALFA-Lcb1 (S. cerevisiae) (UniProt P25045).
T2 sequence: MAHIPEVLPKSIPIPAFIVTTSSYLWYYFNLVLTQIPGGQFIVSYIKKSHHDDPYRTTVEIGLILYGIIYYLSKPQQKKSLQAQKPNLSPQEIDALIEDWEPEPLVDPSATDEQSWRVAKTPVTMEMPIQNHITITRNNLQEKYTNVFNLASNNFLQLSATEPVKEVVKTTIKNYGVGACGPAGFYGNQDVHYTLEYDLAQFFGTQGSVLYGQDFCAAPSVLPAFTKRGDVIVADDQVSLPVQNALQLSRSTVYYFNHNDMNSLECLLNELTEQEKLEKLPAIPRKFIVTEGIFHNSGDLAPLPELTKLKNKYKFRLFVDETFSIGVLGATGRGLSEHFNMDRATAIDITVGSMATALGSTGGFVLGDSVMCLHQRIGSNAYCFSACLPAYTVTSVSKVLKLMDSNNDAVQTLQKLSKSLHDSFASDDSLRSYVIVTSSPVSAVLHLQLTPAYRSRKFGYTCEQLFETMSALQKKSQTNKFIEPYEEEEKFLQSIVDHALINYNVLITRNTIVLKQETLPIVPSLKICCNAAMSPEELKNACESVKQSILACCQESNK

Assay [3] has as its target T3, Lcb1 with an internal 3xFLAG epitope inserted after P9 (S. cerevisiae) (UniProt P25045).
T3 sequence: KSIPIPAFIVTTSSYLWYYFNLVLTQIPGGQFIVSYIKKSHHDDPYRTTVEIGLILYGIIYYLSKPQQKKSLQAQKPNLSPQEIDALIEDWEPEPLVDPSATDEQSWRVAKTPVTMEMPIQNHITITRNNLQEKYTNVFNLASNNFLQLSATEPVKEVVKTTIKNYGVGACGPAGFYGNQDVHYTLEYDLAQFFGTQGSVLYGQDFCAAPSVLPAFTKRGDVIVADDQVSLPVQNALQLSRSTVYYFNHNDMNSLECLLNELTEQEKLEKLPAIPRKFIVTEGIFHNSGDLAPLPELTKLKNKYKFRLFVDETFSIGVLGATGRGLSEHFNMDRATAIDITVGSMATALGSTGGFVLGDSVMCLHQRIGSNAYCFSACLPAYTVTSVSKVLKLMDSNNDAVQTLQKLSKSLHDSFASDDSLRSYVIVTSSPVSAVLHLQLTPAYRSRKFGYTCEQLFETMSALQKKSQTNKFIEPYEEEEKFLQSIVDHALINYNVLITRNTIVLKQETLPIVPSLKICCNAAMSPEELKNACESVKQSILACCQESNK

The target of assay [4] is T4, ALFA-Lcb1 (S. cerevisiae), P25045.
T4 chain: T2 sequence
The note with it: remark: other sources report otherwise.

With “Orm1 (endogenous, untagged) (from UniProt P53224 1-222)”, the binding entry in assay [1] and in assay [2] was “binds” throughout.

B1: Lcb2 (endogenous) (enzyme, UniProt P40970 1-561)
chain: MSTPANYTRVPLCEPEELPDDIQKENEYGTLDSPGHLYQVKSRHGKPLPEPVVDTPPYYISLLTYLNYLILIILGHVHDFLGMTFQKNKHLDLLEHDGLAPWFSNFESFYVRRIKMRIDDCFSRPTTGVPGRFIRCIDRISHNINEYFTYSGAVYPCMNLSSYNYLGFAQSKGQCTDAALESVDKYSIQSGGPRAQIGTTDLHIKAEKLVARFIGKEDALVFSMGYGTNANLFNAFLDKKCLVISDELNHTSIRTGVRLSGAAVRTFKHGDMVGLEKLIREQIVLGQPKTNRPWKKILICAEGLFSMEGTLCNLPKLVELKKKYKCYLFIDEAHSIGAMGPTGRGVCEIFGVDPKDVDILMGTFTKSFGAAGGYIAADQWIIDRLRLDLTTVSYSESMPAPVLAQTISSLQTISGEICPGQGTERLQRIAFNSRYLRLALQRLGFIVYGVADSPVIPLLLYCPSKMPAFSRMMLQRRIAVVVVAYPATPLIESRVRFCMSASLTKEDIDYLLRHVSEVGDKLNLKSNSGKSSYDGKRQRWDIEEVIRRTPEDCKDDKYFVN
As to B1, the binding entry in assay [2] is recorded as “binds”.

B2: Orm2 (endogenous, untagged) (protein, UniProt Q06144 1-216)
chain: MIDRTKNESPAFEESPLTPNVSNLKPFPSQSNKISTPVTDHRRRRSSSVISHVEQETFEDENDQQMLPNMNATWVDQRGAWLIHIVVIVLLRLFYSLFGSTPKWTWTLTNMTYIIGFYIMFHLVKGTPFDFNGGAYDNLTMWEQINDETLYTPTRKFLLIVPIVLFLISNQYYRNDMTLFLSNLAVTVLIGVVPKLGITHRLRISIPGITGRAQIS
For B2, the binding result in assay [1] and in assay [2] was “binds” throughout.

B3: Sac1 (endogenous) (enzyme, UniProt P32368 1-623)
chain: MTGPIVYVQNADGIFFKLAEGKGTNDAVIHLANQDQGVRVLGAEEFPVQGEVVKIASLMGFIKLKLNRYAIIANTVEETGRFNGHVFYRVLQHSIVSTKFNSRIDSEEAEYIKLLELHLKNSTFYFSYTYDLTNSLQRNEKVGPAASWKTADERFFWNHYLTEDLRNFAHQDPRIDSFIQPVIYGYAKTVDAVLNATPIVLGLITRRSIFRAGTRYFRRGVDKDGNVGNFNETEQILLAENPESEKIHVFSFLQTRGSVPIYWAEINNLKYKPNLVLGENSLDATKKHFDQQKELYGDNYLVNLVNQKGHELPVKEGYESVVHALNDPKIHYVYFDFHHECRKMQWHRVKLLIDHLEKLGLSNEDFFHKVIDSNGNTVEIVNEQHSVVRTNCMDCLDRTNVVQSVLAQWVLQKEFESADVVATGSTWEDNAPLLTSYQNLWADNADAVSVAYSGTGALKTDFTRTGKRTRLGAFNDFLNSASRYYQNNWTDGPRQDSYDLFLGGFRPHTASIKSPFPDRRPVYIQLIPMIICAALTVLGATIFFPKDRFTSSKNLLYFAGASIVLALSTKFMFKNGIQFVNWPKLVDVGFLVVHQTHDKEQQFKGLKYAQSPKFSKPDPLKRD
Regarding B3, the binding entry in assay [2] is “binds”.

B4: Sac1 (PI4P phosphatase) (enzyme, UniProt P32368 1-623)
chain: B3 chain
Take B4: the binding result in assay [3] was “binds”.

B5: Tsc3 (endogenous), Q3E790 1-80 (protein)
chain: MTQHKSSMVYIPTTKEAKRRNGKSEGILNTIEEVVEKLYWTYYIHLPFYLMASFDSFFLHVFFLTIFSLSFFGILKYCFL
As to B5, in assay [4], the binding result was “binds”.

The values above are taken from doi:10.1101/2024.01.30.577963.
